The source of these data is PubChem BioAssay AID493014 (National Center for Advancing Translational Sciences (NCATS), 2011).

By AC50 is commonly meant the midpoint of the concentration-response curve, whichever way the signal moves.

A short description of the experiment: qHTS Assay to Find Inhibitors of Chronic Active B-Cell Receptor Signaling. The following applies: ABC-DLBCL IkBa-CBG/CBR reporter, luminescence ratio (green luciferase fused to IkBa over red control in TMD8 lymphoma cells), 4 h. Summed up:
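TMD8 ABC-DLBCL cells carrying doxycycline-inducible green luciferase fused to IkappaBalpha plus unfused red luciferase were exposed to compounds (up to 46 uM) for 4 hrs at 37C. Activity came from the overlap-corrected green/red luminescence ratio.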
(In general: Quantitative high-throughput screening tests each substance at several concentrations.)

Where [1] appears, read: measured here: CBR red luminescence, cell number.
The mark [2] stands for this setting: measured here: IkBa-CBG green luminescence.

Where “and” joins values, the source holds several entries; their conditions need not be identical. Equal entries are not always repeated. This is one part of the list. Further columns of the screen follow, without active or inactive calls. Most of these compounds were active or inconclusive in the main read-out, so they are no random draw. Words in brackets tell the shape of the fitted curve; partial curves, single points and poor fits give uncertain potencies.

As for `CC(=O)Nc1cccc(NC(=O)c2ccc(Br)cc2)c1`, the AC50 under setting [1] is 1.58 µM [falling, full curve, poor fit]. Same read-out and setting: for `COc1cc2c(cc1OC)CN(c1ncccc1[N+](=O)[O-])CC2` the value was 1.12 µM [rising, partial curve, poor fit]; for `C=CCc1ccccc1OCC(O)CN1CCN(Cc2ccc3c(c2)OCO3)CC1` (stereo not drawn), 0.58 µM [falling, partial curve, poor fit]; for `C=CCOC(=O)C1=C[C@H](c2cn(C(C)=O)c3ccccc23)C[C@H](OCCCCO)O1`, 6.31 µM [rising, single point]. Same read-out and setting: the same measure for `COc1cc(CC(=O)Nc2ccc3nc(C)sc3c2)cc(OC)c1OC`: 3.66 µM [rising, single point]; for `Cc1cc(C(=O)NCCC2=CCCCC2)no1`: 22.4 µM [falling, single point]. Same read-out and setting: for `C=CCNC(=O)NC(=O)COC(=O)[C@H](C)NS(=O)(=O)c1c(C)c(C)cc(C)c1C` the value was 2.24 µM [rising, partial curve, poor fit]; for `O=C(O)c1ccc(/C=N/NC(=O)c2cc3c(ccc4ccccc43)o2)cc1`, 1.78 µM [falling, full curve, poor fit]. For `O=C1C(SCCO)=C(SCCO)C(=O)c2ccccc21`, the AC50 by setting is: under setting [1], 18.4 µM [falling, partial curve]; under setting [2], 4.11 µM [falling, partial curve, poor fit]. As to `Cc1ccc(C(=O)Nc2nc3ccc(S(C)(=O)=O)cc3s2)o1`, the AC50 under setting [1] is 16.4 µM [falling, single point]. On the same count and under the same terms, the same measure for `c1ccc(Cc2nc3ccccc3o2)cc1`: 0.146 µM [falling, full curve, poor fit]; for `[2H]c1c([2H])c([2H])c(-c2nc(N3CCCCCC3)sc2C(=O)c2ccccc2)c([2H])c1[2H]`: 2.51 µM [rising, partial curve, poor fit].

Consider `COc1cccc(-c2nn(-c3ccc(C)cc3)cc2C(=O)N2CCN(C3CCS(=O)(=O)C3)CC2)c1` (stereo not drawn), for which, under setting [1], the AC50 was 1.64 µM [rising, partial curve, poor fit]. On the same count and under the same terms, the same measure for `COc1ccc2[nH]c(=O)c(COC(=O)c3cccs3)cc2c1`: 2.91 µM [rising, full curve, poor fit]; for `N#Cc1nc(COc2ccccc2)oc1N1CCN(Cc2ccccc2)CC1`: 29.1 µM [rising, single point]; for `O=C(Nc1nnc(-c2ccccc2)s1)c1ccccc1O`: 0.562 µM [falling, full curve].

Turning to `Cc1ccc(CSc2nnc(SCC(=O)N/N=C/c3c(C)nn(-c4ccccc4)c3C)s2)cc1`, the AC50 under setting [1] was 9.2 µM [falling, partial curve].

`Cc1ccc(NC(=O)CSc2nc(=O)n(CCN(C)C)c3c2CCCC3)cc1Cl`: the AC50 under setting [1] is 29.1 µM [falling, single point]. Consider `CCOC(=O)c1c(NC(=O)CCS(=O)(=O)c2ccccc2)sc2c1CCN(C)C2`, for which the AC50 under setting [1] is 6.31 µM [rising, single point].

As to `COc1cc(C(c2c(C)[nH][nH]c2=O)c2c(C)[nH][nH]c2=O)ccc1OCc1ccc([N+](=O)[O-])cc1`, under setting [1], the AC50 is 23.1 µM [falling, single point].

`CNC(=O)Oc1ccc2c(c1)[C@]1(C)CCN(C)[C@@H]1N2C`: under setting [1], the AC50 was 15.8 µM [rising, partial curve, poor fit] and 29.1 µM [rising, single point].

On to `O=C(OCc1cccc(F)c1)c1ccc2c(=O)n3c(nc2c1)CCC3`, for which the AC50 under setting [1] is 1.26 µM [rising, full curve, poor fit]. Still for that read-out and setting: for `O=C(Cn1nc(-c2ccccc2)ccc1=O)NCCN1CCN(c2cccc(Cl)c2)CC1` the value was 0.146 µM [rising, full curve, poor fit]; for `CC1=CCCC(C)(C)C1/C=C/C(C)=N/NC(=O)c1ccncc1` (stereo not drawn), 35.5 µM [falling, single point]; for `O=C(NCc1ccccc1Cl)c1ccc2nnsc2c1`, 35.5 µM [falling, single point].

As for `Cc1ccc(NC(=O)C2CCN(S(=O)(=O)c3cc([N+](=O)[O-])ccc3Cl)CC2)nc1`, the AC50 under setting [1] is 23.1 µM [falling, single point]. As to `CCOC(=O)c1ccc(N=C2SC(C(=O)NC)CC(=O)N2CCc2ccccc2)cc1` (stereo not drawn), the AC50 under setting [1] is 20 µM [falling, partial curve, poor fit]. Still for that read-out and setting: the same measure for `CN(CC(=O)Nc1ccc(F)cc1)S(=O)(=O)c1ccc2c(c1)c(=O)n(C)c(=O)n2C`: 20 µM [falling, partial curve, poor fit]; for `CCn1cc(Br)c(C(=O)NN)n1`: 3.55 µM [falling, partial curve, poor fit]; for `CCOC(=O)c1n[nH]n2c1nc(=S)c1ccccc12`: 14.1 µM [falling, single point]. Same read-out and setting: the same measure for `N#C/C(=C\c1cccnc1)c1nc2ccccc2[nH]1`: 3.98 µM [falling, partial curve]; for `COc1ccc(Cc2nc3ccc(C(=O)N4CCOCC4)cc3o2)cc1`: 8.91 µM [rising, partial curve]; for `[O-][n+]1onc2c3cc(-c4ccccc4)nnc3ccc21`: 31.6 µM [rising, single point]. On the same count and under the same terms, for `O=c1oc2ccccc2cc1-c1nnc(NCc2ccco2)s1` the value was 13 µM [falling, single point]; for `COc1cc(/C=C/C(=O)c2ccc3c(c2)OCO3)cc(OC)c1OC`, 25.9 µM [falling, partial curve]; for `Cc1ccc(SCCNC(=O)c2ccccc2C)cc1`, 29.1 µM [falling, single point]. Take `Cc1cnc([N+](=O)[O-])n1CCOC(=O)NC(=O)c1ccc(C(F)(F)F)cc1`: the AC50 under setting [1] was 35.5 µM [rising, partial curve, poor fit]. On the same count and under the same terms, for `COc1ccc(C(=O)Oc2ccc3oc(=O)sc3c2)cc1` the value was 10.3 µM [falling, partial curve, poor fit]; for `COc1cccc(C(=O)NCCS(=O)(=O)N2CCOCC2)c1`, 8.2 µM [falling, partial curve, poor fit]; for `O=S(=O)(Nc1nc2ccccc2nc1Cl)c1ccc2ccccc2c1`, 29.1 µM [falling, single point].

Take `CCOC(=O)C(C)n1cnc2c(nnn2Cc2ccc(Cl)cc2)c1=O` (stereo not drawn): the AC50 under setting [1] is 0.13 µM [rising, full curve, poor fit]. As for `CC(C)NCCCCOc1ccc(Br)cc1Cl`, the concentration at half-maximal activity (AC50) under setting [2] is 12.6 µM [rising, partial curve, poor fit]. With `COc1ccc(OC)c(C2Nc3c(Cl)ccc(C(=O)O)c3C3C=CCC32)c1` (stereo not drawn), the AC50 under setting [1] is 5.62 µM [falling, single point]. Consider `COc1ccc(NS(=O)(=O)c2ccc(NC(=S)NC(=O)/C=C/c3ccccc3)cc2)nn1`, for which, under setting [1], the AC50 was 14.6 µM [falling, partial curve].

Regarding `CCCN1CCC(=NNc2ccc(S(N)(=O)=O)cc2[N+](=O)[O-])CC1`, the AC50 under setting [1] is 11.2 µM [falling, partial curve]. For `O=C(c1cccc(S(=O)(=O)N2CCOCC2)c1)N(CCc1ccccc1)Cc1ccccc1`, the AC50 under setting [1] is 14.6 µM [falling, single point]. In the case of `Cc1cccc(C2C3=C(Nc4[nH]n(-c5ccccc5)c(=O)c42)c2ccccc2C3=O)c1` (stereo not drawn), the AC50 was 7.31 µM [rising, partial curve, poor fit] under setting [1] and 18.4 µM [rising, partial curve, poor fit] under setting [2].

Take `O=C(N/N=C/c1ccccn1)c1cc(Br)ccc1O`: the AC50 reads like this: under setting [1], 10 µM [falling, partial curve, poor fit]; under setting [2], 35.5 µM [falling, single point].

In the case of `NC(=O)c1cc2c(s1)-c1cc(Cl)ccc1SC2`, the AC50 under setting [1] is 1.41 µM [falling, partial curve, poor fit]. The same measure, in the same setting: the same measure for `COCCN(Cc1ccccc1)C(=O)c1c(C)nn(-c2ccccc2)c1C`: 3.55 µM [rising, partial curve, poor fit].

As for `O=C(/C=C/c1ccc(F)cc1)NC(=S)NNC(=O)c1cccnc1`, under setting [1], the AC50 was 7.31 µM [falling, partial curve]. Take `COc1ccc(C(CC(=O)c2ccc(C)cc2)C(C#N)C#N)cc1OC` (stereo not drawn): the AC50 is 23.1 µM [falling, single point] under setting [1] and 32.6 µM [rising, partial curve, poor fit] under setting [2].

With `CCN(CC)c1ccc(C(=S)NC2CCCCC2)cc1`, the AC50 under setting [1] was 0.447 µM [rising, full curve, poor fit]. `COc1ccc(C(=O)OCC(=O)Nc2ccc(F)c(F)c2)cc1OC`: the AC50 under setting [1] is 23.1 µM [rising, single point] and the AC50 under setting [2] was 16.4 µM [falling, partial curve, poor fit].

As to `S=c1nc(-c2ccccc2)n(CCN2CCOCC2)c2c1CCCC2`, the AC50 under setting [1] was 20 µM [falling, partial curve, poor fit]. Same read-out and setting: for `O=C(Nc1cccc(F)c1)C1CCCN1S(=O)(=O)c1cccc2cccnc12` (stereo not drawn) the value was 1.84 µM [rising, single point]. Regarding `CCOc1ccccc1N1CC(C(=O)Nc2ccc(C(=O)O)cc2)CC1=O` (stereo not drawn), the AC50 by setting is: under setting [1], 0.651 µM [falling, full curve, poor fit]; under setting [2], 0.92 µM [rising, full curve, poor fit].

With `O=C(Cn1c(NCCCO)nc2ccccc21)c1ccc(Cl)cc1`, the AC50 under setting [1] was 4.47 µM [falling, partial curve, poor fit]. On the same count and under the same terms, for `CCOC(=O)N1CCC(NC(=O)CSCc2nc(-c3sccc3C)oc2C)CC1` the value was 2.06 µM [rising, single point]. On the same count and under the same terms, for `Cc1cccc(C(C)Nc2ccc([N+](=O)[O-])cn2)c1` (stereo not drawn) the value was 3.55 µM [rising, single point]. As for `COc1cc(/C=N/NC(=O)c2ccc(Cl)cc2)ccc1OCC(=O)N1CC(C)OC(C)C1` (stereo not drawn), the AC50 was 11.2 µM [falling, partial curve, poor fit] under setting [1] and 14.1 µM [rising, partial curve, poor fit] under setting [2].
